Laboratory results as given in US20120210450A1.
No constants are given. Whether binding was seen depends on the method and setting. A result given as binding can be weak or reduced; the word gives no strength. Where a sequence is shown, tags or fusion partners need not be part of it.

The chains behind the UniProt entries cited, without tags or fusion partners. Where a name states a change or a piece, a line headed by the entry shows the natural chain unless it says otherwise.
UniProt P01579: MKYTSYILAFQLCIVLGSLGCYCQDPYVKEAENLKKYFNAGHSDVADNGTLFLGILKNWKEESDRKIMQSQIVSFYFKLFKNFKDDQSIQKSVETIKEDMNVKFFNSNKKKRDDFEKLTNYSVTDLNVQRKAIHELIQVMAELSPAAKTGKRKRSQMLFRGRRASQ

Target: T1, UNQ1900-ECD-Fc (human) (UniProt Q6UXG8)
T1 sequence: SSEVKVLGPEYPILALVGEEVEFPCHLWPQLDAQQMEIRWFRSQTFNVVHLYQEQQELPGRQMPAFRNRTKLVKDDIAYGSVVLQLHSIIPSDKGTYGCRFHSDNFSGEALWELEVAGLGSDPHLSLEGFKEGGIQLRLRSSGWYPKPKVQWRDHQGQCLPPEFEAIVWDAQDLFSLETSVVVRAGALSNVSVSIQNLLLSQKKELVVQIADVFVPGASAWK
Assay: BiaCore (SPR), UNQ1900-ECD-Fc coated on chip, screen of 275 proteins

binding: binds
Substance: INF-gamma (from UniProt P01579) (ligand)
